Our source for the log2 fold change values is the supplement of paper PMC10849652.

Amino acid sequences for entries named in this document (tags omitted). A change or cut given only in a name is not applied to a line headed by its entry.
UniProt Q71F56: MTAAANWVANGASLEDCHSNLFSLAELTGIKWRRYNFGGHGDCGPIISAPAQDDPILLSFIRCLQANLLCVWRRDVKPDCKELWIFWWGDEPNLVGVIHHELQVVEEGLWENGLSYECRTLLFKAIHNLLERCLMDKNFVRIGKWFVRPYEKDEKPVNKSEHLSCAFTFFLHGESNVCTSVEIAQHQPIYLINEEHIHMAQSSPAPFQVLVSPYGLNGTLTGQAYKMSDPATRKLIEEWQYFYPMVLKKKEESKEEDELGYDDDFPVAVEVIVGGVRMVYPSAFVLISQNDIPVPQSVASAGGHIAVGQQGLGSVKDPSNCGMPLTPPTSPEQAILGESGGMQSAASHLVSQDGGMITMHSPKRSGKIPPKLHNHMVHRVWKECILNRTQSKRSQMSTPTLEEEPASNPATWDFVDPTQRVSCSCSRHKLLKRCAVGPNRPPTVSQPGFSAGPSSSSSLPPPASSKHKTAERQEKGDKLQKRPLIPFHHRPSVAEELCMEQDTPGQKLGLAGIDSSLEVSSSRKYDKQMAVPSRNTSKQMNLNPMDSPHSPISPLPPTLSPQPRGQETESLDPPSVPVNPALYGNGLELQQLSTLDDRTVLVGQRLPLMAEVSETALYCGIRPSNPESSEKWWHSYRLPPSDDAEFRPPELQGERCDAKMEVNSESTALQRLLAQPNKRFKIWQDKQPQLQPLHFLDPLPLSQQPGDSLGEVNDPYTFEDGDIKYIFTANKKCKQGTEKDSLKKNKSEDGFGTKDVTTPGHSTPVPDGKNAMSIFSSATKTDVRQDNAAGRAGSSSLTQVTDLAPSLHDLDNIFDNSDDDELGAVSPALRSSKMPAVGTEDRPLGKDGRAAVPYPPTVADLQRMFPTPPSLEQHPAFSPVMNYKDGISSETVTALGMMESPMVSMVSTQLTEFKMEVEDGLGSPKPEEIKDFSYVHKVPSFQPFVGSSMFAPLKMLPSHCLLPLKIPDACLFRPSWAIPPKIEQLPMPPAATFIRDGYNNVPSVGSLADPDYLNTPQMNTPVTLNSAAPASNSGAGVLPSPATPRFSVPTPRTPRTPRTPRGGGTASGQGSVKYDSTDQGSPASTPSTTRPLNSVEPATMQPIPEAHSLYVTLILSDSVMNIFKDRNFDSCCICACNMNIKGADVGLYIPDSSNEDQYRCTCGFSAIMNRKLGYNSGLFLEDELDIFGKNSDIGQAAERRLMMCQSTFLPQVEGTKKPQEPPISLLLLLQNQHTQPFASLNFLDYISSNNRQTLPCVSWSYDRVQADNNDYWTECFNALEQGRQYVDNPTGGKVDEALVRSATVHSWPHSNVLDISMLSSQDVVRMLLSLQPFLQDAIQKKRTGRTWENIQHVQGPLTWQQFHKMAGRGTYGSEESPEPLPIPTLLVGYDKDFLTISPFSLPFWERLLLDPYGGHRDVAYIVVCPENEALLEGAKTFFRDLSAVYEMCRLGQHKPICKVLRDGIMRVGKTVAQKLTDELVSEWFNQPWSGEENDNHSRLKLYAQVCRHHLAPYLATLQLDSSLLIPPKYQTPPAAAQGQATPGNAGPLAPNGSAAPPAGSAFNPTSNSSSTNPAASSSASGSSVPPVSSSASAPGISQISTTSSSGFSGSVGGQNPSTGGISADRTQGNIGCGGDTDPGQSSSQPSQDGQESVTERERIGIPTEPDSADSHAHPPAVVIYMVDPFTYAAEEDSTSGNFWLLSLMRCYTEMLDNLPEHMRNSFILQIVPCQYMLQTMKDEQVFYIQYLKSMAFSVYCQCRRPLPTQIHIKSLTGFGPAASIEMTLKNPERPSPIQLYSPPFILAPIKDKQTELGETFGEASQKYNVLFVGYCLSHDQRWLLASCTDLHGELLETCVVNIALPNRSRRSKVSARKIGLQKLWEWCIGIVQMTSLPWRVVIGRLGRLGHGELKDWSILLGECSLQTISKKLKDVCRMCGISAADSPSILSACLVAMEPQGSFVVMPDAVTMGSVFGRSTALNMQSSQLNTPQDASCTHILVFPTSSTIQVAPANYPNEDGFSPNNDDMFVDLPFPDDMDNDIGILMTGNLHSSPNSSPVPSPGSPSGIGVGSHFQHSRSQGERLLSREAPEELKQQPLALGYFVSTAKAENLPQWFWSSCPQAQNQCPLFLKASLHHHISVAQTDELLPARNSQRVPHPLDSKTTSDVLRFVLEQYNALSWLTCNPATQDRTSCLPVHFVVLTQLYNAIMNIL
UniProt Q9H944: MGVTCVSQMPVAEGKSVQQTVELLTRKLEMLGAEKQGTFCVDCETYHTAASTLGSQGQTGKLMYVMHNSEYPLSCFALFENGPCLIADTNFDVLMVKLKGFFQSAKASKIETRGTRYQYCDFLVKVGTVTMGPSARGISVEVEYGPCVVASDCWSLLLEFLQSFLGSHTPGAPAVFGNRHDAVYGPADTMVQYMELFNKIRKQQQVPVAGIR
UniProt O60244: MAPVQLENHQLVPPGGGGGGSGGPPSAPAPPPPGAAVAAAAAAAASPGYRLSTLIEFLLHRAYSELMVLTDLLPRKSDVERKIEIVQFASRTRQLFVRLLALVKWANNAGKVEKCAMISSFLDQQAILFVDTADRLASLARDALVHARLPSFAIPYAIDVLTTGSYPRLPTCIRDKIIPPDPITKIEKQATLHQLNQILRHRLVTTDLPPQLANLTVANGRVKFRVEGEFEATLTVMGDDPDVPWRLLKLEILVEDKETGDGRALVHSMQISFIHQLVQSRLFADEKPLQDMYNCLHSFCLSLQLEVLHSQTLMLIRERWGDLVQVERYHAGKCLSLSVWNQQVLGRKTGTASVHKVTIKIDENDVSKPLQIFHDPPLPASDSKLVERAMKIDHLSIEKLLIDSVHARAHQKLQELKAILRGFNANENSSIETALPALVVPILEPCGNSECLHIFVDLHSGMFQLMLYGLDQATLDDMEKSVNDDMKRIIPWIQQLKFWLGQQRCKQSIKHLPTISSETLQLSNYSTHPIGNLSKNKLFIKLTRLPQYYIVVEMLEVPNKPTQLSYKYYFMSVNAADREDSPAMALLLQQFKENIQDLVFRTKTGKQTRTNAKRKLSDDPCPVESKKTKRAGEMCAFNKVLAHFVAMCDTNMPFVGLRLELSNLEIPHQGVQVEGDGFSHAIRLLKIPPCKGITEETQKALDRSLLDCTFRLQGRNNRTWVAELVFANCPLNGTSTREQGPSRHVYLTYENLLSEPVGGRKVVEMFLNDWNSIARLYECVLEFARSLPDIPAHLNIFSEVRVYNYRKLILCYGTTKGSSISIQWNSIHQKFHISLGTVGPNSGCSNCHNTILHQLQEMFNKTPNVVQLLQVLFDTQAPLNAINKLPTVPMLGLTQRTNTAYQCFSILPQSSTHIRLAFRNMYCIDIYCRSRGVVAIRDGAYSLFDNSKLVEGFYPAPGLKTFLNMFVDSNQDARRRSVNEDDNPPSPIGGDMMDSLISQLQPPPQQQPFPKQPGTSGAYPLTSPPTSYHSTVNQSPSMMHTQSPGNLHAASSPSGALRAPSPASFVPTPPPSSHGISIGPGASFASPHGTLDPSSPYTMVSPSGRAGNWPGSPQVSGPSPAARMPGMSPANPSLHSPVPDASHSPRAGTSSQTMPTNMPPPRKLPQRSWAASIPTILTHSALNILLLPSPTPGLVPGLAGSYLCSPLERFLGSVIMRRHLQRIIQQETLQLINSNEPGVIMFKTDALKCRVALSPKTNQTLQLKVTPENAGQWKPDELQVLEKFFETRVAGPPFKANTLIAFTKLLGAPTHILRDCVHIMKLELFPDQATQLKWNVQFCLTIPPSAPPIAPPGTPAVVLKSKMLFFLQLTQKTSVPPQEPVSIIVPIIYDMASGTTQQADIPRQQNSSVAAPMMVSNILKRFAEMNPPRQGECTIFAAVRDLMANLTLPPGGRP
UniProt Q15528: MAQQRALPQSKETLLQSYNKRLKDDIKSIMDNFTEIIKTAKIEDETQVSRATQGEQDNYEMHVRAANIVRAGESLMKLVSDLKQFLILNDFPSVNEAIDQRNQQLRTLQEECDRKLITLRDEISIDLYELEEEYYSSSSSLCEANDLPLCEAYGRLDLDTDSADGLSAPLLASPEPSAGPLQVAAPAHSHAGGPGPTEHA
UniProt Q7Z434: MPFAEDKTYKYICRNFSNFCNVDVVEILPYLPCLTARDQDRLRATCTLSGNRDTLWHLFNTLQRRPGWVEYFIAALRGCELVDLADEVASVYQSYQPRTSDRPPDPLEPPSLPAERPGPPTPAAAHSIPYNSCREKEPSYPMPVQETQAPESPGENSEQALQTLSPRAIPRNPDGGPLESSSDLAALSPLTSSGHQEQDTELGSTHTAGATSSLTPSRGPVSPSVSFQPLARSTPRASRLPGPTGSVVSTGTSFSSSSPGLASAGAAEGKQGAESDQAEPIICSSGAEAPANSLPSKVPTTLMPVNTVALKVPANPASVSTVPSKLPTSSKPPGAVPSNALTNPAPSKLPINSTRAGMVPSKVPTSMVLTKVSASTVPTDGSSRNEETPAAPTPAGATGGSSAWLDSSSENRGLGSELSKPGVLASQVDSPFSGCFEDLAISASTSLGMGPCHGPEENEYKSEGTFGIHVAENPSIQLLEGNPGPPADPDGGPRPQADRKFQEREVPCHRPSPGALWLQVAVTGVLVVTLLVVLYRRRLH
UniProt O14770: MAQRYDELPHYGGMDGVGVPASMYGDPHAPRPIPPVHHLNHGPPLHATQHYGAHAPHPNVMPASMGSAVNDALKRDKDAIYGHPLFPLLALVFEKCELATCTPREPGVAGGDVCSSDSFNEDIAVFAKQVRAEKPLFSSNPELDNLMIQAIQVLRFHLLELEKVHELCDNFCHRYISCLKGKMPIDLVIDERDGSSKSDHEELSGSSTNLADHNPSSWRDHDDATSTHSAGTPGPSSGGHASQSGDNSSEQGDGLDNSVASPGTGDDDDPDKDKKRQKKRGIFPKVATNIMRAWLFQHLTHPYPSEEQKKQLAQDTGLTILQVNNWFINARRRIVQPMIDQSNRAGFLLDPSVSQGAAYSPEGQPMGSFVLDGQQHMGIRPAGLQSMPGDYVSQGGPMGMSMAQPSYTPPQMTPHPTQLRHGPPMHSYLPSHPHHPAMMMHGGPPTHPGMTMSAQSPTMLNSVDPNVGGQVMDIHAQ
UniProt Q5VZF2: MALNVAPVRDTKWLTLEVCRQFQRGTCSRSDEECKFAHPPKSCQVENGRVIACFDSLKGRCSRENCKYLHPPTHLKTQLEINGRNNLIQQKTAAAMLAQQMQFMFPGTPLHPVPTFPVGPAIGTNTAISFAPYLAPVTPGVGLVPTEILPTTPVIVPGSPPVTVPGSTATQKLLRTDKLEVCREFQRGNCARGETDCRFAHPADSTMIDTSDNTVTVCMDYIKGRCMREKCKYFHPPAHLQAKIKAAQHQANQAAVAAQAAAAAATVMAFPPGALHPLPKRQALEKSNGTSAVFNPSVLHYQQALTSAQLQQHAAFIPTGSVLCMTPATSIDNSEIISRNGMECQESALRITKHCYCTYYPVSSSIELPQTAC
UniProt O00255, whole entry, looked up: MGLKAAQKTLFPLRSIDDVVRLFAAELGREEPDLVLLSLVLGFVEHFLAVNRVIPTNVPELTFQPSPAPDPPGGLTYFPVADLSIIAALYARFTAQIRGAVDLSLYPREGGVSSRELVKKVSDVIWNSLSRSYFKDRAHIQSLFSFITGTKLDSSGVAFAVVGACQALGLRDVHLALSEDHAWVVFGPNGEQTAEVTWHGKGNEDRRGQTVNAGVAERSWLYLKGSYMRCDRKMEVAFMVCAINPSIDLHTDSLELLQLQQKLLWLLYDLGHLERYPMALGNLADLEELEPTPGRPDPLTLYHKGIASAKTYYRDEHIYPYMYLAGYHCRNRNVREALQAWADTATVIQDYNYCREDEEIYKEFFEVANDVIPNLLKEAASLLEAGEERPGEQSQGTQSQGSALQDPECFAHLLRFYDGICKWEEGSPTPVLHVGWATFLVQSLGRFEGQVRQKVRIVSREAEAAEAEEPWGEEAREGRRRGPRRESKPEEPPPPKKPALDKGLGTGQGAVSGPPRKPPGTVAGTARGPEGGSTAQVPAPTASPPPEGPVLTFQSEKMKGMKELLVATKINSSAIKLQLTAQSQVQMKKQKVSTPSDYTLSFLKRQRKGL
UniProt Q14814: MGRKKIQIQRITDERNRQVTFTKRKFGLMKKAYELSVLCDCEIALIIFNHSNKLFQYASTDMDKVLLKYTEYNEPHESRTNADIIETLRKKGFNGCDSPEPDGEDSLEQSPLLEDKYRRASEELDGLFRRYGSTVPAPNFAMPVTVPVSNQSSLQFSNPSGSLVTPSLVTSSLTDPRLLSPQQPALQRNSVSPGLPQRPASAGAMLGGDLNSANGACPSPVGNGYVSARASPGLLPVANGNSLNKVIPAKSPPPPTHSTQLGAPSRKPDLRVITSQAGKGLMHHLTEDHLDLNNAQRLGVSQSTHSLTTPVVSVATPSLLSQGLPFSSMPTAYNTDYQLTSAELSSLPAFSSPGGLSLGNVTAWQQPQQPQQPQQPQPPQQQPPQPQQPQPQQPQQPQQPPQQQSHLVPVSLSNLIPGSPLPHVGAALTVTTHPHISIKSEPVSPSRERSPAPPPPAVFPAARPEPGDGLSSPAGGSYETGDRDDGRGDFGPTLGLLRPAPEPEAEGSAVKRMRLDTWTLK

Some of the results follow.

Compound in this assay: C1COCCN1CCN2C3=CC=CC=C3N=C2NC(=O)C4=CC(=CC=C4)[N+](=O)[O-] [IRAK-1-4 Inhibitor I]
As to the kind of experiment: log2 fold change, soluble protein after heating vs DMSO (PISA); higher = thermal stabilisation; K562 lysate, 10 uM; active = over 0.2 and 3.5 SD of the protein, either way, in both replicates (recomputed). A digest of the protocol:
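Thermal stability, expressed as log-two fold change relative to solvent controls, is given from duplicates. Crude K562 extract in PBS pH 7.4 with 1 mM MgCl2, at 1 mg/mL protein, was treated with 10 μM compound for 30 min and heated in aliquots for 3 min across 48°C-58°C. After pooling, adjustment to 0.5% NP-40 at 4°C and centrifugation at 21,000xg for 90 min, supernatant protein was measured by TMTpro 16plex LC-MS/MS with channel sums equalised.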
As for METTL7A (UniProt Q9H8H3), the log2 fold change is inactive: 0.036.
For MCM10 (UniProt Q7L590), the log2 fold change was inactive: -0.017.
On to MDM2 isoform 11 (UniProt Q00987), for which the log2 fold change is inactive: 0.151.
As to MCFD2 (UniProt Q8NI22), the log2 fold change was inactive: 0.011.
For MCM5 (UniProt P33992), the log2 fold change is inactive: -0.013.
As to MBOAT1 (UniProt Q6ZNC8), the log2 fold change is inactive: -0.096.
MED13L (UniProt Q71F56): the log2 fold change was inactive: 0.061.
Turning to MCOLN1 (UniProt Q9GZU1), the log2 fold change was inactive: -0.034.
In the case of METTL14 (UniProt Q9HCE5), the log2 fold change is inactive: -0.009.
For MELK (UniProt Q14680), the log2 fold change was inactive: 0.017.
As to MED12 isoform 2 (UniProt Q93074), the log2 fold change is inactive: -0.035.
With METTL16 (UniProt Q86W50), the log2 fold change was inactive: -0.004.
For the target MFSD8 (UniProt Q8NHS3), the log2 fold change is inactive: -0.015.
As to METTL5 (UniProt Q9NRN9), the log2 fold change is inactive: 0.037.
Turning to MED20 (UniProt Q9H944), the log2 fold change is inactive: -0.002.
In the case of MCM3AP (UniProt O60318), the log2 fold change was inactive: 0.035.
As for MED14 (UniProt O60244), the log2 fold change is inactive: 0.005.
On to MEF2A isoform 2 (UniProt Q02078), for which the log2 fold change was inactive: -0.04.
Next, MED22 isoform 2 (UniProt Q15528): inactive: 0.083.
On to MFHAS1 (UniProt Q9Y4C4), for which the log2 fold change was inactive: 0.05.
Next, MAVS (UniProt Q7Z434): inactive: 0.044.
For the target MED26 (UniProt O95402), the log2 fold change is inactive: 0.012.
Next, MDM1 (UniProt Q8TC05): inactive: -0.043.
With MEGF9 (UniProt Q9H1U4), the log2 fold change was inactive: 0.083.
Take MEIS2 (UniProt O14770): the log2 fold change is inactive: -0.06.
Consider MCMBP isoform 2 (UniProt Q9BTE3), for which the log2 fold change is inactive: -0.016.
In the case of MFAP3 (UniProt P55082), the log2 fold change is inactive: -0.01.
For the target MBNL2 (UniProt Q5VZF2), the log2 fold change was inactive: -0.005.
Next, MEN1 (UniProt O00255): inactive: 0.053; MEPCE (UniProt Q7L2J0): inactive: -0.038; MED17 (UniProt Q9NVC6): inactive: -0.012.
Consider MEF2D (UniProt Q14814), for which the log2 fold change was inactive: 0.009.
Consider MFSD1 isoform 6 (UniProt Q9H3U5), for which the log2 fold change is inactive: -0.072.
As to MBOAT2 (UniProt Q6ZWT7), the log2 fold change is inactive: -0.065.
